Consider one substance from publication PMC8403986.

Protein sequences, listed by entry. Tags and fused reporters are not part of them. Lines headed by an entry give the natural chain unless they say otherwise; changes in a name come on top.
UniProt O15169: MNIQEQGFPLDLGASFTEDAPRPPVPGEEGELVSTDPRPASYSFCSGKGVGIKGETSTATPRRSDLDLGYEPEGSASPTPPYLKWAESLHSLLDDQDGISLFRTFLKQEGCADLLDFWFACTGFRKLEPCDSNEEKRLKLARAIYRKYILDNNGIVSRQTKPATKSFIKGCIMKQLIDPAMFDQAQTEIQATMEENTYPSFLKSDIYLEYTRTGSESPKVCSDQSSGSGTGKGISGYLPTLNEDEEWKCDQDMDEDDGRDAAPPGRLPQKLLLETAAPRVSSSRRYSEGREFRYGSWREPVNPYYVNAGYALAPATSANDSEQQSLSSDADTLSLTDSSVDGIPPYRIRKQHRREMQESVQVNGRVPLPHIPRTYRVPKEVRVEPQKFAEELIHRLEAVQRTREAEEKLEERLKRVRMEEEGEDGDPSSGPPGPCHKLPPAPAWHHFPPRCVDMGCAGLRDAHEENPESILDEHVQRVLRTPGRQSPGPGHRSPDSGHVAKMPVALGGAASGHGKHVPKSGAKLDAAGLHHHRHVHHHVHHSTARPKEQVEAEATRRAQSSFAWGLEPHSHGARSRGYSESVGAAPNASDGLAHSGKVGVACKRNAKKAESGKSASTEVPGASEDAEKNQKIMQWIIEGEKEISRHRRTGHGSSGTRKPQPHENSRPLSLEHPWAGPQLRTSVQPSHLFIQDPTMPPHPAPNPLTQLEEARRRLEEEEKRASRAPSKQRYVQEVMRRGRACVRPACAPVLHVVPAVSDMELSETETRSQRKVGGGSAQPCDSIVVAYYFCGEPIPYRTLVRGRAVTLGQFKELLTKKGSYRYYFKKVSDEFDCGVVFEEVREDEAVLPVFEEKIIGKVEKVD
UniProt P35222: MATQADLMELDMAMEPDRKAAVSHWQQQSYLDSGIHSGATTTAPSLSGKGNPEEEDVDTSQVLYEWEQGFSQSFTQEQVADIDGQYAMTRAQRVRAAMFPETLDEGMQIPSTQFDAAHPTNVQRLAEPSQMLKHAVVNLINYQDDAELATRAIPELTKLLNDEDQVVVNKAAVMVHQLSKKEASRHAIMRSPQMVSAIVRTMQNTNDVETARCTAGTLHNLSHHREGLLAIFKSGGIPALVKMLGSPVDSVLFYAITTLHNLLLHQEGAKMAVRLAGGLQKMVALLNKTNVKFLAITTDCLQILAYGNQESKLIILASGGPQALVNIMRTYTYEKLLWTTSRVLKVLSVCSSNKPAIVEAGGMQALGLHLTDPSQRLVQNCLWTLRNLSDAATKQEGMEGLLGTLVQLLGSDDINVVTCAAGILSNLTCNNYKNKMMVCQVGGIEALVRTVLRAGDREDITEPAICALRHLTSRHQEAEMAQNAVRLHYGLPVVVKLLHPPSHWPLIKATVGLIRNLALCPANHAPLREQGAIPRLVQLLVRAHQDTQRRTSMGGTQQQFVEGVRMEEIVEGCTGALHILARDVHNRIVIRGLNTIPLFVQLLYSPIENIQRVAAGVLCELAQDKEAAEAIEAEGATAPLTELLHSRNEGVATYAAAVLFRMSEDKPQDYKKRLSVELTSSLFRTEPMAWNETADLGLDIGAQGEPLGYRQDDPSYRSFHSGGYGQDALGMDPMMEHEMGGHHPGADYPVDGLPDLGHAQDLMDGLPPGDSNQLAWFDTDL

Results are given in words; binding and its absence hold for the method and conditions named. Binding seen in cells or lysates may run through a third protein. Binding calls can cover weak binding; strength is not graded here.

This assay concerns the target AXIN1 M3-dStrepII (polymerization-deficient mutant) (human) (UniProt O15169). The assay is described as follows: pull-down; Strep-Tactin Sepharose purification via AXIN1-dStrepII (wild type or M3) from lysates of Sf9 cells co-expressing an APC variant, CK1α, GSK3β and β-catenin; 50 mM HEPES-NaOH pH 7.5, 150 mM NaCl, 4°C, 2 h; SDS-PAGE with Coomassie and immunoblot.

Take “β-catenin, full length, co-expressed in the destruction complex (from UniProt P35222 1-781)”: the binding entry was “binds”.
